Data from PubChem BioAssay AID652054 (National Center for Advancing Translational Sciences (NCATS), 2013).
The whole screen tested about 360,000 compounds, of which about 9,100 (2.5%) were called active. This list was built around the results that the source calls inconclusive (neither active nor inactive); the mix of calls is not that of the screen. Cut-off read from the data, not from the text of the source: active = max response below about -50%; inconclusive = no clear call, values can overlap the other calls; inactive = above that.

Protein sequences, listed by entry. Tags and fused reporters are not part of them.
UniProt P35462, whole entry, looked up: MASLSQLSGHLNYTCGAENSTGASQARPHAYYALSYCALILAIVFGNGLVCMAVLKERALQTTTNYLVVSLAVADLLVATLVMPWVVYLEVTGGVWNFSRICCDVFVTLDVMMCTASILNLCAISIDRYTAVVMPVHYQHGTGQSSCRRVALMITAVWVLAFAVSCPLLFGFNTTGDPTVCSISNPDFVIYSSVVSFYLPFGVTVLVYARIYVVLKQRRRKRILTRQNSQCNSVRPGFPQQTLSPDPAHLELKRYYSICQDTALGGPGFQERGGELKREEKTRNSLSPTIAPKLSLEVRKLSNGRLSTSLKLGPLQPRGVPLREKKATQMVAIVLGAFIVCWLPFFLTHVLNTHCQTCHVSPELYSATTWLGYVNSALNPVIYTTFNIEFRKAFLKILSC

Each compound was assayed against D(3) dopamine receptor (Homo sapiens) (UniProt P35462) (assay: qHTS of D3 Dopamine Receptor Antagonist: qHTS). Conditions: D3R cells, DiscoveRx beta-arrestin luminescence, antagonist mode; stronger effect = lower value.
Outline: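 Cells plated overnight at 1500 cells/well, then exposed to library compounds with dopamine controls for 90 minutes at 37 degrees C. DiscoveRx reagent added for 30–60 minutes at room temperature; luminescence read, quantitative HTS format.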
% is set by controls: 0 for no effect and ±100 for the full control effect.

Max response, negative = inhibition, inactive:
Clc1cccc(N/N=C/c2ccc(N3CCOCC3)s2)c1 3.92%, Fc1ccc(Nc2nc(N3CCOCC3)c3ccccc3n2)cc1 25.5%, C/C(=N/OC(=O)c1ccc(C)cc1)c1cccs1 -2.92%, CCC(C)CNC(=O)c1cccc(OC2CCN(CC(C)(C)C)CC2)c1 (stereo unspecified) -6.33%, CCN(CC)S(=O)(=O)c1ccc(NC(=O)c2ccc(OCC3CCCO3)cc2)cc1 (stereo unspecified) 4.75%, CN(C(=O)COC(=O)c1cnc(Cl)c(Cl)c1)C1CCS(=O)(=O)C1 (stereo unspecified) 7.61%, COc1ccc(NC(=S)NCCc2c[nH]c3ccc(OC)cc23)c(OC)c1 -22.8%, O=C(CCCN1C(=O)c2cccnc2C1=O)Nc1ccc(Br)cc1 -8.97%, CC1CC(C)CN(CC(O)COCc2ccccc2)C1 (stereo unspecified) 2.02%, CCCN1CCN(c2nc3c([nH]2)c(=N)ncn3CC(O)CO)CC1 (stereo unspecified) 9.95%, CN1CCC(N2CCN(C3CN(C4CCCCC4)S(=O)(=O)C3)CC2)CC1 (stereo unspecified) -0.117%, CCCCn1c(=NC(=O)c2ccco2)c(C(=O)OCC)cc2c(=O)n3ccccc3nc21 53.1%, COC(=O)c1cc(Br)c(=O)n(CCC2=CCCCC2)c1 0.225%, CCNC(=O)COC(=O)c1cc(C)n(-c2ccccc2)c1C 7.71%, COc1ccc(Nc2nc(C)nc3c2nnn3Cc2ccccc2Cl)c(OC)c1 -21.4%, CCOC(=O)C1(C(=O)OCC)NC(=O)CC1C (stereo unspecified) 3.62%, Cc1cc(NC(=O)c2cc(-c3cccs3)nc3ccccc23)no1 35.2%, O=C(O)c1ccccc1Nc1cc(Cl)c2nonc2c1[N+](=O)[O-] -10.6%, O=C(c1ccccc1)c1ccc(OCC(O)CNCc2cccc(Cl)c2)cc1 (stereo unspecified) 2.39%, CC(C)(C)NCc1cc(Cl)ccc1OCc1ccccc1F 0.603%, CC(Oc1ccc(Br)cc1)C(=O)Nc1cc(Cl)ccc1N1CCN(C)CC1 (stereo unspecified) -1.01%, O=C(NCCC(=O)N(CCc1ccccc1)Cc1ccccc1)c1ccccc1Cl -11.8%, CC1=C(C(=O)N(C)C)CC(CC(=O)NCCc2ccccn2)C(=O)N1CCC1=CCCCC1 (stereo unspecified) -22.1%, C#CCOCCOCCOCCNc1nc(N2CCN(C(=O)CCCCCCCCCCNC(=O)[C@@H](CCSC)n3cc(CCO)nn3)CC2)nc(N2CCN(C(=O)CCCCCCCCCCNC(=O)[C@@H]([C@H](C)O)n3cc(C)nn3)CC2)n1 -3.23%

Max response, negative = inhibition, inconclusive:
Cc1ccc(CNC(=O)CNC(=S)N(Cc2ccccc2)Cc2cccnc2)cc1 -41.1%, OC(CNCc1ccccc1Cl)COc1ccc(F)cc1 (stereo unspecified) -41.8%, O=C(O)c1cccn2c(=O)c3ccccc3nc12 -44.5%, OCCN(Cc1ccccc1)Cc1ccc(Cl)cc1Cl -33.4%, CN(C)CCCNC(=O)C(=O)NCC1OCCN1S(=O)(=O)c1cccs1 (stereo unspecified) -31.8%, Cc1c(Cl)cccc1NC(=S)N1CCCN(Cc2ccc(F)cc2)C1 -31%, Cc1ccc(S(=O)(=O)N/N=C\c2ccccc2OCc2ccccc2)cc1 -36.8%, CCNC(=S)SCCOc1ccccc1C -42.8%, S=C(Nc1ccc(Br)cc1)NC1CCCCC1 -31.2%, CN(Cc1ccccc1)S(=O)(=O)c1ccc(NC(=S)NC(=O)C2CCCC2)cc1 -45.8%, CCc1nc2ccc(C(=O)N3CCN(S(=O)(=O)CC)CC3)cn2c1N(C=O)Cc1ccc(OC)cc1 -30.1%, CN(C)c1ccc(/C=N\NC(=S)SCN2C(=O)C3CCC(C)(C2=O)C3(C)C)cc1 (stereo unspecified) -42.7%, COC(=O)c1ccc(CNC(=O)/C=C/c2cc([N+](=O)[O-])ccc2OC(F)F)cc1 -34%, COCCN(C/C=C/c1ccccc1)C/C=C/c1ccccc1 -44.6%, Cc1ccc2c(c1)-c1c(cnn1CC(=O)N(CCC#N)c1ccccc1)CO2 -39.7%, O=S(=O)(c1cc(Cl)ccc1Cl)N1CCCCC1 -37.9%, CCNC(=S)N/N=C/c1cc(C)n(-c2ccc(Cl)cc2)c1C -33%, O=C(OCC(=O)N1CCN(c2ccccc2)CC1)c1cccs1 -35.7%, COc1cccc(C2c3c(oc4ccc(Cl)cc4c3=O)C(=O)N2c2cc(C)on2)c1OC (stereo unspecified) -33.4%, O=[N+]([O-])c1ccccc1S(=O)(=O)NCCC1=CCCCC1 -32.9%, CN(NC1OC(=O)c2ccccc21)c1ccccc1[N+](=O)[O-] (stereo unspecified) -34.8%, O=C(NCCCN1CCN(c2cccc(Cl)c2)CC1)C1CCC(=O)N1Cc1ccccc1Cl (stereo unspecified) -36.8%, Cn1c2ccccc2c2ncn(CCCN3CCOCC3)c(=O)c21 -30.4%, CCS(=O)(=O)c1ccc2oc(=O)c(/C=C(\O)c3ccc(Cl)cc3)nc2c1 -37.5%, Cc1cc(C(=O)N/N=C/c2ccc(-c3cccc(Cl)c3Cl)o2)n[nH]1 -30.6%, CCC(CC)NC(=O)c1oc2ccccc2c1COc1ccccc1 -44.5%, CCOC(=O)c1nn(-c2ccc(C)c(C)c2)c(=O)c2c(N)scc12 -49.9%, CS(=O)(=O)N(CC(=O)NCc1ccc(Cl)cc1)C1CCCCC1 -35.1%, CCOC(=O)c1c(N)sc(C(=O)N(C)C)c1C -41.5%, c1ccc(-c2ccccc2OCCCN2CCCCCC2)cc1 -44%, CCC(CC)CN1CCC(CN2C(=S)NC[C@@H]2CC(C)C)CC1 -46.8%, CCN(CC)CCNC(=O)c1cc2c(s1)-c1ccccc1SC2 -38.1%, CCOC(=O)/C=C/C(=O)OCC(=O)Nc1ccc(Cl)cn1 -34%, CNC(=O)N(c1ccccc1)c1ccccc1 -38.3%, CC(C)(C)NC(=O)CSc1nnc(C2CC2)n1Cc1ccccc1 -47.1%, Cc1ccc(C(C)(C)C)cc1S(=O)(=O)N1CCC(C(=O)N2CCN(c3ccc(O)cc3)CC2)CC1 -37.7%, COc1cc(CNCCc2c[nH]c3ccccc23)ccc1OCc1ccc(F)cc1 -33.6%, Cc1c(C(=O)c2no[n+]([O-])c2C(=O)c2cnn(C)c2C)cnn1C -32.1%, CCC(Sc1nc(-c2ccccc2)c(C#N)c(=O)[nH]1)C(=O)Nc1nnc(C)s1 (stereo unspecified) -35.1%, O=C1C(=O)c2ccc(-c3ccccc3)cc2-c2ccccc21 -42.5%, CC(C)(C)C1CCC2(CC1)NC(=S)N(c1ccccc1)N2 (stereo unspecified) -42.2%, Cc1c(N2C(=O)/C(=C/C3CC=CCC3)SC2=S)c(=O)n(-c2ccccc2)n1C (stereo unspecified) -31%, COc1ccc(CNCCC(c2ccc(OC(C)C)cc2)c2ccccc2OC)cc1OC (stereo unspecified) -39.8%, Cc1ccccc1-c1cc2nc(C)c(C)c(=O)n2[nH]1 -30.3%, CSc1ccc(Cl)c(C(=O)NCCOc2ccccc2)c1 -38.9%, CCOC(=O)c1cc2ccccc2n1CCN(CC)CC -33.7%, Cc1cccc(CN2CCN(C(C)C(=O)NC(C)c3ccccc3)CC2)c1 (stereo unspecified) -31.4%, O=C(NCC1CCN(Cc2cccc(Cl)c2)CC1)Nc1ccccc1Cl -46.5%, Cc1ccc(S(=O)(=O)N2CCCCC2)cc1NC(=O)COC(=O)c1cccn1C -48.3%, COc1cc(CNC2CCCCCC2)cc(OC)c1 -37.3%, Cc1cc(NC(=S)N(CCN2CCOCC2)Cc2ccccc2F)ccc1Cl -42.5%, Cc1ccc(NC(=O)C(C)[n+]2ccccc2)cc1[N+](=O)[O-] (stereo unspecified) -31.3%, COc1cc(CNCCCN2CCOCC2)ccc1OCC(=O)Nc1cccc(C(F)(F)F)c1 -32.5%

Max response, negative = inhibition, active:
COc1ccc(C(c2nnnn2-c2c(C)cccc2C)N2CCN(C/C=C/c3ccccc3)CC2)cc1 (stereo unspecified) -87.2%, c1ccc(-c2nccc(-c3ccc(-n4cnc5ccccc54)cc3)n2)nc1 -53.4%, CCc1c(C(=O)NNC(=S)NCCc2ccccc2)csc1C -65.5%, Cc1cc(OCCN2CCCC2)cc(C(C)C)c1 -86%, CCCCn1c(=O)[nH]c(=O)c2c1nc(Cn1ncc(Cl)c(Cl)c1=O)n2CCC -64.4%, Cc1ccc2[nH]c3nc(SCCN4CCOCC4)nnc3c2c1 -57.4%, COCCCNC(=S)NC1CC2CCCC(C1)N2Cc1ccco1 (stereo unspecified) -150%, Cc1ccc(-c2ccc(/C=N/N=C3/NC(=O)C(CC(=O)O)S3)o2)c([N+](=O)[O-])c1 (stereo unspecified) -78.5%, O=C1C=CC(=O)N1CCCCCCN1C(=O)C=CC1=O -72.2%, C=CCc1cc(OC)ccc1OCCN(C)Cc1ccccc1 -58.9%, C=C(CN(C)C)C(=O)c1ccc(C)cc1C -88%, O=C(NC1CCN(Cc2ccccc2)CC1)c1cncc(Br)c1 -85.8%, CN(C)c1ccc(Cc2cc3c(O)ccc(O)c3cc(Cc3ccc(N(C)C)cc3)c2=O)cc1 -51.1%, Cc1cccc(-c2cnc(C(O)c3ccc4ccccc4c3)[nH]2)c1 (stereo unspecified) -81.3%
